Measurements: paper PMC2229849
No constants are given. Whether binding was seen depends on the method and setting. Binding seen in cells or lysates may run through a third protein. Some binding calls cover weakened binding; strength is not graded here. Tags and fused reporters may be left off the sequences shown.

T1: HA-tagged wild-type S. pombe Rpc2p (second largest RNA polymerase III subunit) (S. pombe) (UniProt Q10233)
T1 sequence: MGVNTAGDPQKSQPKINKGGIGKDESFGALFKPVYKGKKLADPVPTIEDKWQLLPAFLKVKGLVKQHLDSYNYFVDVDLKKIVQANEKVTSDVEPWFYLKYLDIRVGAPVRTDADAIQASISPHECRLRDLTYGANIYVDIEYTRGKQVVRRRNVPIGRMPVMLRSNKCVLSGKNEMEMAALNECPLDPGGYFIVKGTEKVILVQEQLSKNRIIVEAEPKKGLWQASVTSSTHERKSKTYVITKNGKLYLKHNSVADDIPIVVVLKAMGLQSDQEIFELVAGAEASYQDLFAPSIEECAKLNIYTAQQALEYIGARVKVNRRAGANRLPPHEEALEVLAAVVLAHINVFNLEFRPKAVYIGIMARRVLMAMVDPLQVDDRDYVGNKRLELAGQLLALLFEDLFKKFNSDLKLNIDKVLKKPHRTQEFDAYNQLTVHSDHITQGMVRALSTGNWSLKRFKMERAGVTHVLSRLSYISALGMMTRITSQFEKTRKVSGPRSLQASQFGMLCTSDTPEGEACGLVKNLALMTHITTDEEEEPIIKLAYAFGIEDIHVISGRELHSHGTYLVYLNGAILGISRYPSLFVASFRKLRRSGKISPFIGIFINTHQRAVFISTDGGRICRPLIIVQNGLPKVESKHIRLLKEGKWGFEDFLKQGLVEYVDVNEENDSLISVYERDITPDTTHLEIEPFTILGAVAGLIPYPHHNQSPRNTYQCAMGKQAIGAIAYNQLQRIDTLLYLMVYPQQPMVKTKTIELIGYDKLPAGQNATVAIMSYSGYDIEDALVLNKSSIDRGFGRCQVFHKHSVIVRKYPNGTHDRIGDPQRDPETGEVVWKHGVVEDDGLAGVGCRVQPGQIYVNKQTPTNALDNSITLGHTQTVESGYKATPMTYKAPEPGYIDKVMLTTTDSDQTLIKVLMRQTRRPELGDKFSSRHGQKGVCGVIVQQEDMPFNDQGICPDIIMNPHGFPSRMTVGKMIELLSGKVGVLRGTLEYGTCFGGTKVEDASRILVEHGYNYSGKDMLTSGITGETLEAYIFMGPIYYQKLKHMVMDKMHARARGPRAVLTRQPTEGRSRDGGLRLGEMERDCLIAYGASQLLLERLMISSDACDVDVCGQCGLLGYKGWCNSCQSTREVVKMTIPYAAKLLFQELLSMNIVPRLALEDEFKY

T2: His6-FLAG-tagged S. pombe Rpc53p (RNA polymerase III subunit) (S. pombe) (UniProt O74857)
T2 sequence: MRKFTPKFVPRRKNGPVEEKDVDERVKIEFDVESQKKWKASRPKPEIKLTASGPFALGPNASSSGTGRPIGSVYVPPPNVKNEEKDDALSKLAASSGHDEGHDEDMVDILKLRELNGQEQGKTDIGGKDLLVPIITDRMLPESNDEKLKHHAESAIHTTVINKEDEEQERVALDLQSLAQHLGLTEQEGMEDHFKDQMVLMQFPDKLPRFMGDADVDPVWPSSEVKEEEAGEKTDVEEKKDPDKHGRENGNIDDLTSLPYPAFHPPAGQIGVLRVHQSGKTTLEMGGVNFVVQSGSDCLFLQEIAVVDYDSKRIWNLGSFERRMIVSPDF

B1: S. pombe Rpc11p (RNA polymerase III subunit) (protein, UniProt O13896 1-109)
chain: MQFCPTCGNHLIVAVDEEGRNAFDCRTCPYHFPISTFLYSRHEFAQKEVDDVLGGEEAFESNQQTEVTCENTKCDNNRAYFFQLQIRSADEPMSTFYRCTKCKFQWREN
B2: His6-FLAG-tagged S. pombe Rpc53p (RNA polymerase III subunit) (protein, UniProt O74857 1-330)
chain: MRKFTPKFVPRRKNGPVEEKDVDERVKIEFDVESQKKWKASRPKPEIKLTASGPFALGPNASSSGTGRPIGSVYVPPPNVKNEEKDDALSKLAASSGHDEGHDEDMVDILKLRELNGQEQGKTDIGGKDLLVPIITDRMLPESNDEKLKHHAESAIHTTVINKEDEEQERVALDLQSLAQHLGLTEQEGMEDHFKDQMVLMQFPDKLPRFMGDADVDPVWPSSEVKEEEAGEKTDVEEKKDPDKHGRENGNIDDLTSLPYPAFHPPAGQIGVLRVHQSGKTTLEMGGVNFVVQSGSDCLFLQEIAVVDYDSKRIWNLGSFERRMIVSPDF

How the values were obtained:
[1] = target: T1, HA-tagged wild-type S. pombe Rpc2p (second largest RNA polymerase III subunit) (S. pombe); assay: co-IP; sequential affinity purification of Pol III from S. pombe extracts: FLAG-His6-Rpc53p as in ref. 50, then the eluate from the Ni-NTA column on anti-HA beads (HA-Rpc2p or HA-Rpc2-Δp) for 4 h at 4 °C; elution by boiling in SDS loading buffer; immunoblot of subunits
[2] = target: T2, His6-FLAG-tagged S. pombe Rpc53p (RNA polymerase III subunit) (S. pombe); assay: as above

| Binder | binding [1] | binding [2] |
| --- | --- | --- |
| B1 | binds | binds |
| B2 | binds |  |
